Experimental data: patent US8394380B2, “Compositions and methods for alzheimer's disease” (Primex Clinical Laboratories, Inc., priority 2004, dated 2013)
“Also recorded” adds a separate entry of the source. For some assays here: Not every detail of the peptide structures is certain; ends, links or a residue may be inferred. For some assays here: For at least one compound, name, drawing or mass did not settle the structure. No end group written: not given here.

The chains behind the UniProt entries cited, without tags or fusion partners. Residues count along the entry.
UniProt P05067, 672-713 limits assumed: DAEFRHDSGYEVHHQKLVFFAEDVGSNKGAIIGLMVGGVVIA

Experiments:
[1] = tested on: rat cultured hippocampal neurons; assay: Neuroprotection assay, Aβ42-induced neurotoxicity, MTT reduction; details: peptide 40 μM with Aβ42 40 μM, 72 h
Aβ42 [2] = molecular target: T1, Aβ42 (Homo sapiens, UniProt P05067); assay: Competition ELISA: binding of biotinylated Aβ42 to immobilized cyclic C44; details: competitor pre-incubated with biotinylated Aβ42 overnight at 4° C., N44 linear
Procedure: For competition ELISA, cyclic C44 and linear N44 were diluted in PBS/1% BSA and incubated with biotinylated Aβ42 overnight at 4° C. prior to addition to plates coated with cyclic C44.

Aβ42 [3] = molecular target: T1, Aβ42; assay: ELISA using CDR-based synthetic peptides: biotinylated Aβ42 added to peptide-coated plates; format: binding; details: plates coated with peptide 10 μg/ml
Procedure: ELISA analysis was carried out using MaxiSorp microtiter plates coated overnight with synthetic peptide at a concentration of 10 μg/ml in carbonate buffer. After washing, plates were blocked with PBS/2% BSA for 1 h at 37° C. After incubation and a washing step, biotinylated Aβ42 was added to each well. Plates were again incubated for 1 h at 37° C., washed, and reacted with an avidin-peroxidase conjugate diluted 1:500 (Pharmingen, San Jose, Calif., USA) followed by the ABTS single solution (Zymed) as described above.

cerebral Aβ = details: high doses; cited from earlier work
[4] = tested on: primary cultures of hippocampal neurons and mixed cortical neurons; details: cited from earlier work

Row | Compound | prevention of reduction in mitochondrial activity induced by Aβ42 [1] | inhibition of binding of Aβ42 to immobilized cyclic C44 (Aβ42 [2]) | binding to Aβ42 in ELISA (Aβ42 [3]) | cerebral Aβ (cerebral Aβ) | intracellular and extracellular levels of Aβ [4]
1 | ASVRGWYVRSVFDPA [N44] | did not prevent | did not show any inhibition; also recorded: Competition was not observed | did not demonstrate binding | – | –
2 | CCC(C)(C)C(=O)O[C@H]1C[C@@H](C)C=C2C=C[C@H](C)[C@H](CC[C@@H]3C[C@@H](O)CC(=O)O3)[C@H]21 [simvastatin] | – | – | – | strong and reversible reduction | reduce
